Results deposited as PubChem BioAssay AID1224829 (NIAID, 2016).
In all, the deposit lists about 3,800 reagents; this is a random part of them. 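Calls cover raised and lowered translocation; gene median uses one vendor's three siRNAs; qiagen siRNAs acted more weakly than ambion siRNAs.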 A number with no mark means an inactive call. Reagents against one gene are numbered here.

- Aim: 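Follow-up of TLR4-NF-kappaB regulators using six separate siRNAs for each gene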 (follow-up of hits)
- Cell system: mouse RAW264.7 G9 macrophage reporter cells
- Reagent: single siRNA against mouse genes, 100 nM
- Timing: 2 days of siRNA knock-down, then 40 min of LPS before fixing
- Challenge: LPS (Salmonella minnesota R595) at 10 ng/ml
- Read-out: 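High-content images after 40 min LPS exposure; GFP-p65 nucleus to surrounding ring signal ratio, normalised to plate median and non-targeting control wells, expressed as z-score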
- Direction: p65 translocation z-score and gene median z-score, per vendor: higher = more nuclear NF-kappaB p65 after LPS
- Call rule: 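Active means the replicate-mean z-score lies beyond plus or minus 2, in either direction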
- Meaning of the calls: active = changed p65 translocation (either direction); inactive = no clear change

| gene knocked down | siRNA no. | siRNA vendor or control pool | p65 translocation z-score, replicate mean | p65 translocation z-score, replicate 1 | p65 translocation z-score, replicate 2 | gene median z-score, per vendor |
| --- | --- | --- | --- | --- | --- | --- |
| Aplp2 | 1 | ambion single siRNA | -0.0211 | -0.389 | 0.347 | -0.159 |
| Aplp2 | 2 | ambion single siRNA | -3.12 (active) | -4.09 | -2.16 | -0.159 |
| Aplp2 | 3 | ambion single siRNA | 0.583 | 1.09 | 0.0721 | -0.159 |
| Aplp2 | 4 | qiagen single siRNA | 0.0765 | -0.439 | 0.592 | -1.2 |
| Aplp2 | 5 | qiagen single siRNA | -1.34 | -1.2 | -1.49 | -1.2 |
| Aplp2 | 6 | qiagen single siRNA | -4.11 (active) | -4.11 | – | -1.2 |
| Cdkn1a | 1 | ambion single siRNA | 1.32 | 6.01 | -3.38 | 3.83 |
| Cdkn1a | 2 | ambion single siRNA | 5.56 (active) | 5.56 | – | 3.83 |
| Cdkn1a | 3 | ambion single siRNA | 0.137 | 3.83 | -3.56 | 3.83 |
| Cdkn1a | 4 | qiagen single siRNA | -0.587 | -1.3 | 0.128 | -3.2 |
| Cdkn1a | 5 | qiagen single siRNA | -5.01 (active) | -4.46 | -5.55 | -3.2 |
| Cdkn1a | 6 | qiagen single siRNA | -3.2 (active) | -2.49 | -3.91 | -3.2 |
| Slc25a4 | 1 | qiagen single siRNA | 1.29 | 1.68 | 0.892 | 1.42 |
| Slc25a4 | 2 | qiagen single siRNA | 1.32 | 1.19 | 1.44 | 1.42 |
| Slc25a4 | 3 | qiagen single siRNA | 1.92 | 2.44 | 1.41 | 1.42 |
| Gm15850 | 1 | ambion single siRNA | 4.55 (active) | 5.72 | 3.37 | 1.24 |
| Gm15850 | 2 | ambion single siRNA | 1.24 | 0.987 | 1.49 | 1.24 |
| Gm15850 | 3 | ambion single siRNA | -4.92 (active) | -5.25 | -4.59 | 1.24 |
| Plgrkt | 1 | ambion single siRNA | -4.43 (active) | -4.44 | -4.42 | -4.96 |
| Plgrkt | 2 | ambion single siRNA | -5.6 (active) | -6.96 | -4.23 | -4.96 |
| Plgrkt | 3 | ambion single siRNA | -7.39 (active) | -9.3 | -5.48 | -4.96 |
| Plgrkt | 4 | qiagen single siRNA | 1.37 | 0.122 | 2.62 | 0.878 |
| Plgrkt | 5 | qiagen single siRNA | -1.17 | -0.837 | -1.49 | 0.878 |
| Plgrkt | 6 | qiagen single siRNA | 2.75 (active) | 1.63 | 3.86 | 0.878 |
| Tsg101 | 1 | ambion single siRNA | 3.66 (active) | 4.13 | 3.19 | -1.44 |
| Tsg101 | 2 | ambion single siRNA | -1.44 | -1.11 | -1.76 | -1.44 |
| Tsg101 | 3 | ambion single siRNA | -2.04 (active) | -1.88 | -2.21 | -1.44 |
| Tsg101 | 4 | qiagen single siRNA | 1.59 | 1.76 | 1.41 | 0.354 |
| Tsg101 | 5 | qiagen single siRNA | 0.354 | 0.0928 | 0.614 | 0.354 |
| Tsg101 | 6 | qiagen single siRNA | -1.16 | -1.18 | -1.14 | 0.354 |
| Drap1 | 1 | ambion single siRNA | -1.37 | -0.625 | -2.12 | -1.55 |
| Drap1 | 2 | ambion single siRNA | 0.696 | 2.36 | -0.972 | -1.55 |
| Drap1 | 3 | ambion single siRNA | -4.12 (active) | -3.38 | -4.86 | -1.55 |
| Drap1 | 4 | qiagen single siRNA | 0.526 | 0.932 | 0.12 | -0.0974 |
| Drap1 | 5 | qiagen single siRNA | -1.52 | -0.349 | -2.68 | -0.0974 |
| Drap1 | 6 | qiagen single siRNA | -0.0438 | 0.227 | -0.315 | -0.0974 |
| Eif3g | 1 | ambion single siRNA | -1.24 | 0.0297 | -2.51 | -1.46 |
| Eif3g | 2 | ambion single siRNA | -0.293 | 0.22 | -0.806 | -1.46 |
| Eif3g | 3 | ambion single siRNA | -2.16 (active) | -2.22 | -2.11 | -1.46 |
| Eif3g | 4 | qiagen single siRNA | -1.49 | -1.49 | – | -0.86 |
| Eif3g | 5 | qiagen single siRNA | -0.671 | -0.0648 | -1.28 | -0.86 |
| Eif3g | 6 | qiagen single siRNA | -0.444 | -0.444 | – | -0.86 |
| Naa50 | 1 | ambion single siRNA | -2.91 (active) | -1.77 | -4.06 | -0.949 |
| Naa50 | 2 | ambion single siRNA | -0.949 | -0.949 | – | -0.949 |
| Naa50 | 3 | ambion single siRNA | 2.22 (active) | 3.35 | 1.09 | -0.949 |
| Naa50 | 4 | qiagen single siRNA | 0.436 | 0.483 | 0.388 | 0.0438 |
| Naa50 | 5 | qiagen single siRNA | -2.26 (active) | 0.0438 | -4.56 | 0.0438 |
| Naa50 | 6 | qiagen single siRNA | -1.92 | -1.92 | – | 0.0438 |
| Irx3 | 1 | ambion single siRNA | 0.0023 | -0.949 | 0.953 | -0.592 |
| Irx3 | 2 | ambion single siRNA | 0.932 | 2.1 | -0.236 | -0.592 |
| Irx3 | 3 | ambion single siRNA | -2.84 (active) | -3.04 | -2.65 | -0.592 |
| Irx3 | 4 | qiagen single siRNA | 0.311 | 0.0844 | 0.537 | 0.0844 |
| Irx3 | 5 | qiagen single siRNA | 1.69 | 1.69 | – | 0.0844 |
| Irx3 | 6 | qiagen single siRNA | -3.01 (active) | -2.32 | -3.7 | 0.0844 |

Records listed so far whose target name starts with G or g:
| gene knocked down | siRNA no. | siRNA vendor or control pool | p65 translocation z-score, replicate mean | p65 translocation z-score, replicate 1 | p65 translocation z-score, replicate 2 | gene median z-score, per vendor |
| --- | --- | --- | --- | --- | --- | --- |
| Gm15850 | 1 | ambion single siRNA | 4.55 (active) | 5.72 | 3.37 | 1.24 |
| Gm15850 | 2 | ambion single siRNA | 1.24 | 0.987 | 1.49 | 1.24 |
| Gm15850 | 3 | ambion single siRNA | -4.92 (active) | -5.25 | -4.59 | 1.24 |
